Test results from paper doi:10.1101/2023.08.07.552250.
These are yes or no findings as the source states them, for the method shown. Some binding calls cover weakened binding; strength is not graded here.

T1: serine/arginine-rich 45 (SR45), SR45.1 isoform (Arabidopsis thaliana) (UniProt Q9SEE9)
T1 sequence: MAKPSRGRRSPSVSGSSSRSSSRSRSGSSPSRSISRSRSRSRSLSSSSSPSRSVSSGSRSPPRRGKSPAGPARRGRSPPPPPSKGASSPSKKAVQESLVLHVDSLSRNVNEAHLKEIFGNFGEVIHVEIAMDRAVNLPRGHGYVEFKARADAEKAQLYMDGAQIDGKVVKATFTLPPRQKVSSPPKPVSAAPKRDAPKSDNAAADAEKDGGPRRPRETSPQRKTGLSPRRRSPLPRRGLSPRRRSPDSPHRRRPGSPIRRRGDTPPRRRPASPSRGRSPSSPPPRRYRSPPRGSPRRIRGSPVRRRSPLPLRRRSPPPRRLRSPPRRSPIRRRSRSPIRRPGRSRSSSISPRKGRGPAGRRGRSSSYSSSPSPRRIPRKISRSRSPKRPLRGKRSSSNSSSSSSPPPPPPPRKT


molecular target: T1, serine/arginine-rich 45 (SR45), SR45.1 isoform (Arabidopsis thaliana); experiment: two-hybrid

Binder | binding
RS31 (protein, UniProt P92964 1-264) MRPVFVGNFEYETRQSDLERLFDKYGRVDRVDMKSGYAFVYFEDERDAEDAIRKLDNFPFGYEKRRLSVEWAKGERGRPRGDAKAPSNLKPTKTLFVINFDPIRTKEHDIEKHFEPYGKVTNVRIRRNFSFVQFETQEDATKALEATQRSKILDRVVSVEYALKDDDERDDRNGGRSPRRSLSPVYRRRPSPDYGRRPSPGQGRRPSPDYGRARSPEYDRYKGPAAYERRRSPDYGRRSSDYGRQRSPGYDRYRSRSPVPRGRP | binds
SR34a (protein, UniProt A2RVS6 1-300) MSGRFSRSIYVGNLPGDIREHEIEDIFYKYGRIVDIELKVPPRPPCYCFVEFEHSRDAEDAIKGRDGYNLDGCRLRVELAHGGRGQSSSDRRGGYGGGGSGYGGGGGGGGSARFGVSRHSEFRVIVRGLPSSASWQDLKDHMRKAGDVCFAEVTRDSDGTYGVVDYTNYDDMKYAIRKLDDTEFRNPWARGFIRVKKYESSRSRSRSPSRSRSRSRSRSRSRGRGRSHSRSRSLSRSKSPRKDLSKSPRRSLSRSISKSRSPSPDKKKSPPRAMSRSKSRSRSRSRSPSKSPPKVREGSV | binds
SR34 (protein, UniProt O22315 1-303) MSSRSSRTVYVGNLPGDIREREVEDLFSKYGPVVQIDLKVPPRPPGYAFVEFDDARDAEDAIHGRDGYDFDGHRLRVELAHGGRRSSDDTRGSFNGGGRGGGRGRGDGGSRGPSRRSEFRVLVTGLPSSASWQDLKDHMRKGGDVCFSQVYRDARGTTGVVDYTCYEDMKYALKKLDDTEFRNAFSNGYVRVREYDSRKDSRSPSRGRSYSKSRSRSRGRSVSRSRSRSRSRSRSPKAKSSRRSPAKSTSRSPGPRSKSRSPSPRRSRSRSRSPLPSVQKEGSKSPSKPSPAKSPIHTRSPSR | binds
RS2Z33 (protein, UniProt Q8VYA5 1-290) MPRYDDRYGNTRLYVGRLSSRTRTRDLERLFSRYGRVRDVDMKRDYAFVEFGDPRDADDARHYLDGRDFDGSRITVEFSRGAPRGSRDFDSRGPPPGAGRCFNCGVDGHWARDCTAGDWKNKCYRCGERGHIERNCKNSPKKLRRSGSYSRSPVRSRSPRRRRSPSRSLSRSRSYSRSRSPVRRRERSVEERSRSPKRMDDSLSPRARDRSPVLDDEGSPKIIDGSPPPSPKLQKEVGSDRDGGSPQDNGRNSVVSPVVGAGGDSSKEDRSPVDDDYEPNRTSPRGSESP | binds
SCL33 (protein, UniProt Q9SEU4 1-287) MRGRSYTPSPPRGYGRRGRSPSPRGRYGGRSRDLPTSLLVRNLRHDCRQEDLRKSFEQFGPVKDIYLPRDYYTGDPRGFGFVQFMDPADAADAKHHMDGYLLLGRELTVVFAEENRKKPTEMRARERGGGRFRDRRRTPPRYYSRSRSPPPRRGRSRSRSGDYYSPPPRRHHPRSISPREERYDGRRSYSRSPASDGSRGRSLTPVRGKSRSLSPSPRRSISRSPRRSRSPSPKRNRSVSPRRSISRSPRRSRSPRRSRRSYTPEPARSRSQSPHGGQYDEDRSPSQ | binds
RS40 (protein, UniProt P92965 1-350) MKPVFCGNFEYDAREGDLERLFRKYGKVERVDMKAGFAFVYMEDERDAEDAIRALDRFEFGRKGRRLRVEWTKSERGGDKRSGGGSRRSSSSMRPSKTLFVINFDADNTRTRDLEKHFEPYGKIVNVRIRRNFAFIQYEAQEDATRALDASNNSKLMDKVISVEYAVKDDDARGNGHSPERRRDRSPERRRRSPSPYKRERGSPDYGRGASPVAAYRKERTSPDYGRRRSPSPYKKSRRGSPEYGRDRRGNDSPRRRERVASPTKYSRSPNNKRERMSPNHSPFKKESPRNGVGEVESPIERRERSRSSPENGQVESPGSIGRRDSDGGYDGAESPMQKSRSPRSPPADE | binds
RSZ22 (protein, UniProt O81126 1-200) MSRVYVGNLDPRVTERELEDEFRAFGVVRSVWVARRPPGYAFLDFEDPRDARDAIRALDGKNGWRVEQSHNRGERGGGGRGGDRGGGGGGRGGRGGSDLKCYECGETGHFARECRNRGGTGRRRSKSRSRTPPRYRRSPSYGRRSYSPRARSPPPPRRRSPSPPPARGRSYSRSPPPYRAREEVPYANGNGLKERRRSRS | binds
RS41 (protein, UniProt P92966 1-356) MKPVFCGNFEYDARESDLERLFRKYGKVERVDMKAGFAFVYMEDERDAEDAIRALDRFEYGRTGRRLRVEWTKNDRGGAGRSGGSRRSSSGLRPSKTLFVINFDAQNTRTRDLERHFEPYGKIVNVRIRRNFAFIQYEAQEDATRALDATNSSKLMDKVISVEYAVKDDDSRGNGYSPERRRDRSPDRRRRSPSPYRRERGSPDYGRGASPVAHKRERTSPDYGRGRRSPSPYKRARLSPDYKRDDRRRERVASPENGAVRNRSPRKGRGESRSPPPYEKRRESRSPPPYEKRRESRSPPPYEKRRERSRSRSKSSPENGQVESPGQIMEVEAGRGYDGADSPIRESPSRSPPAEE | binds
RSZ22a (protein, UniProt Q9SJA6 1-196) MSRVYVGNLDPRVTERELEDEFRSFGVIRSVWVARRPPGYAFLDFEDSRDARDAIREVDGKNGWRVEQSHNRGGGGGRGGGRGGGDGGRGRGGSDLKCYECGESGHFARECRSRGGSGGRRRSRSRSRSPPRYRKSPTYGGRRSYSPRARSPPPPRRRSPSPRGRNYSRSPPPYRARDEVPYANGNGLKDVRRSRS | binds
SCL28 (protein, UniProt Q1PDV2 1-236) MARARSRSRSYSPRPRDRSPPRERKGYDDNRLRERPSSRDHESSGPSGLLIRNLPLDARPNDLRDSFERFGPLKDIYLPRNYYTGEPRGFGFVKYRYAEDAAEAMKRMNHKVIGGREIAIVFAEENRKTPQEMRTTNGTSGRHGDYKRTSHRSPRRRYRSHSRSRSPPRRESRHSKVREDDLYSPRRRSRSISRSPLPRNEREYKSRNCRSPREERVLTPIRSRCLSRSRSRSLSR | binds
SR34b (protein, UniProt F4JHI7 1-278) MSSRSSRTIYVGNLPGDIREREVEDLFSKYGPVVQIDLKIPPRPPGYAFVEFEDARDADDAIYGRDGYDFDGHHLRVELAHGGRRSSHDARGSYSGRGRGGRGGGDGGGRERGPSRRSEYRVVVSGLPSSASWQDLKDHMRKGGEVCFSQVFRDGRGTTGIVDYTSYEDMKYALDDTEFRNAFSHEYVRVREYDSRRDSRSPSRGRSYSKSRSRGRSPSRSRSRSRSRSKSRSPKAKSLRRSPAKSTSRSPRSRSRSKSRSLSPRGWVTVERHWIALI | binds

The remaining lines, values ahead:

binding | Binder
binds | SR30 (protein, UniProt Q9XFR5 1-268) MSSRWNRTIYVGNLPGDIRKCEVEDLFYKYGPIVDIDLKIPPRPPGYAFVEFEDPRDADDAIYGRDGYDFDGCRLRVEIAHGGRRFSPSVDRYSSSYSASRAPSRRSDYRVLVTGLPPSASWQDLKDHMRKAGDVCFSEVFPDRKGMSGVVDYSNYDDMKYAIRKLDATEFRNAFSSAYIRVREYESRSVSRSPDDSKSYRSRSRSRGPSCSYSSKSRSVSPARSISPRSRPLSRSRSLYSSVSRSQSRSKSRSRSRSNSPVSPVISG
binds | RS31a (protein, UniProt Q9ZPX8 1-250) MRHVYVGNFDYDTRHSDLERLFSKFGRVKRVDMKSGYAFVYFEDERDAEDAIRRTDNTTFGYGRRKLSVEWAKDFQGERGKPRDGKAVSNQRPTKTLFVINFDPIRTRERDMERHFEPYGKVLNVRMRRNFAFVQFATQEDATKALDSTHNSKLLDKVVSVEYALREAGEREDRYAGSRRRRSPSPVYRRRPSPDYTRRRSPEYDRYKGPAPYERRKSPDYGRRSSDYGRARARSPGYDRSRSPIQRARG
binds | RSZ21 (protein, UniProt O81127 1-187) MTRVYVGNLDPRVTERELEDEFKAFGVLRNVWVARRPPGYAFLEFDDERDALDAISALDRKNGWRVELSHKDKGGRGGGGGRRGGIEDSKCYECGELGHFARECRRGRGSVRRRSPSPRRRRSPDYGYARRSISPRGRRSPPRRRSVTPPRRGRSYSRSPPYRGSRRDSPRRRDSPYGRRSPYANGV
binds | SCL30 (protein, UniProt Q8L3X8 1-262) MRRYSPPYYSPPRRGYGGRGRSPPPPPPRRGYGGGGGGGGRRGSSHGSLLVRNIPLDCRPEELREPFERFGPVRDVYIPRDYYSGQPRGFAFVEFVDAYDAGEAQRSMNRRSFAGREITVVVASESRKRPEEMRVKTRTRSREPSGSRDRSHGRSRSRSISRSRSPRRPSDSRSRYRSRSYSPAPRRRGGPPRGEEDENYSRRSYSPGYEGAAAAAPDRDRNGDNEIREKPGYEAEDRRRGGRAVSRSPSGSRSRSVEVSPR
binds | SCL30a (protein, UniProt Q9LHP2 1-262) MRGRSYTPSPPRGYGRRGRSPSPRGRFGGSRDSDLPTSLLVRNLRHDCRQEDLRRPFEQFGPVKDIYLPRDYYTGDPRGFGFIQFMDPADAAEAKHQMDGYLLLGRELTVVFAEENRKKPTEMRTRDRGGRSNRFQDRRRSPPRYSRSPPPRRGRRSRSRSRGYNSPPAKRHQSRSVSPQDRRYEKERSYSRSPPHNGSRVRSGSPGRVKSHSRSPRRSVSPRKNRSYTPEQARSQSPVPRQSRSPTPVPRGAQNGDRSPSQ
binds | SC35 (protein, UniProt Q9FMG4 1-303) MSHFGRSGPPDISDTYSLLVLNITFRTTADDLYPLFAKYGKVVDVFIPRDRRTGDSRGFAFVRYKYKDEAHKAVERLDGRVVDGREITVQFAKYGPNAEKISKGRVVEPPPKSRRSRSRSPRRSRSPRRSRSPPRRRSPRRSRSPRRRSRDDYREKDYRKRSRSRSYDRRERHEEKDRDHRRRTRSRSASPDEKRRVRGRYDNESRSHSRSLSASPARRSPRSSSPQKTSPAREVSPDKRSNERSPSPRRSLSPRSPALQKASPSKEMSPERRSNERSPSPGSPAPLRKVDAASRSQSPYAAE
